{"source": "paper PMC12040169", "about": "(PLOS Biology, 2025)", "note": "The list shows a part of the results."}
{"tested_on": "T1, CTL2-GFP (C. trachomatis L2/434/Bu, GFP-expressing)", "T1 construct": "L2/434/Bu, GFP-expressing", "design": "species or system HeLa; Intracellular C. trachomatis growth in HeLa cells, bulk GFP fluorescence relative to DMSO", "details": "bulk GFP, single well; 28.5 h, 10 µM; inhibitor", "units": {"% of control remaining": "%"}}
{"compound": "Cc1ccn2cc(-c3ccc4c(c3)CCN4S(C)(=O)=O)cc2c1", "note": "[CBK285252]", "% of control remaining": 148.954}
{"compound": "O=C(NCc1ccccn1)c1cc(-c2ccc(Cl)cc2)[nH]n1", "note": "[CBK116549]", "% of control remaining": 89.266}
{"compound": "O=C(c1ccc(F)cc1)N1CCN(c2ccc(Nc3ccncc3)nn2)CC1", "note": "[CBK287836]", "% of control remaining": 107.86}
{"compound": "O=S1(=O)CCC(c2nnc(C3(c4ccc(Br)cc4)CCOCC3)o2)C1", "note": "(centres unmarked) [CBK305513]", "% of control remaining": 100.049}
{"compound": "NS(=O)(=O)c1ccc(NC(=O)/C=C/c2cccc([N+](=O)[O-])c2)cc1", "note": "[CBK261616]", "% of control remaining": 109.293}
{"compound": "CCCN1CCN(C(=O)c2cnc(C)cn2)C(Cc2cccc(-c3cccs3)c2)C1=O", "note": "(centres unmarked) [CBK285678]", "% of control remaining": 142.728}
{"compound": "c1ccc2c(-c3ccc(OC4CCNCC4)cc3)cncc2c1", "note": "[CBK126578]", "% of control remaining": 86.9379}
{"compound": "N#C/C(=C\\c1ccc(-c2ccc(S(N)(=O)=O)cc2)o1)c1nc2ncc(Br)cc2[nH]1", "note": "[CBK266288]", "% of control remaining": 100}
{"compound": "COc1ccc(C(=O)NC(=S)Nc2ccc(O)c(-c3nc4cc(C)c(C)cc4o3)c2)cc1[N+](=O)[O-]", "note": "[CBK264039]", "% of control remaining": 97.4319}
{"compound": "Cc1cc(C=O)c(O)c(/C=N/CC/N=C/c2cc(C)cc(C=O)c2O)c1", "note": "[CBK262149]", "% of control remaining": 114.733}
{"compound": "O=C(CO)N1CC2(CCN(Cc3ccc4ccccc4c3)CC2)c2ccccc21", "note": "[CBK131501]", "% of control remaining": 94.7419}
{"compound": "COCCCN(Cc1ccc(F)c(F)c1)Cc1ccccn1", "note": "[CBK282961]", "% of control remaining": 127.279}
{"compound": "COCCn1c(CN2Cc3ccc(Cl)cc3C2=O)nnc1[C@H]1C[C@@H](N)C1", "note": "[CBK307289]", "% of control remaining": 104.827}
{"compound": "Oc1cccc2ccc(/C=N/N=C/c3ccc4cccc(O)c4n3)nc12", "note": "[CBK261127]", "% of control remaining": 100}
{"compound": "Cc1ccc(CNC(=O)Cn2nnc(-c3ccc(CNCC(F)(F)F)cc3)n2)cc1", "note": "[CBK153204T]", "% of control remaining": 108.408}
{"compound": "O=c1[nH]nc2ccc(S(=O)(=O)N3CCCCC3)cn12", "note": "[CBK288459]", "% of control remaining": 150.083}
{"compound": "CC(C)CCNC(=O)N1CCC(C(=O)O)CC1", "note": "[CBK156075]", "% of control remaining": 119.948}
{"compound": "Nn1cnn2c(SCc3ccccc3)nnc12", "note": "[CBK263188]", "% of control remaining": 94.8324}
{"compound": "Cc1c(C(=O)N2CCC(F)(CO)C2)nnn1-c1ccc2ncccc2c1", "note": "(centres unmarked) [CBK304483]", "% of control remaining": 116.988}
{"compound": "O=S(=O)(c1ccccc1)N1CCN(c2cnccn2)CC1", "note": "[CBK287839]", "% of control remaining": 108.05}
{"compound": "COc1ccc(CN2C(=O)COC[C@@H]2[C@H](O)c2ccc(NC(C)=O)cc2)cc1", "note": "[CBK289674]", "% of control remaining": 144.086}
{"compound": "CCC1C(=O)NCCN1C(=O)c1ccc2c(c1)ncn2C", "note": "(centres unmarked) [CBK281709]", "% of control remaining": 134.695}
{"compound": "Cc1ccn2cc(CNC(=O)CN3CCOc4ccccc4C3)nc2c1", "note": "[CBK307518]", "% of control remaining": 115.226}
{"compound": "S=C(Nc1cccnc1)N[C@H]1CC[C@@]2(c3cccnc3)CCN(Cc3ccccc3)[C@H]2C1", "note": "[CBK028450]", "% of control remaining": 100.761}
{"compound": "Cc1cc2c(s1)c1cnn(CC(=O)NCC3CC3)c(=O)c1n2C", "note": "[CBK284222]", "% of control remaining": 147.664}
{"compound": "Cn1nc(C(F)(F)F)cc1C1CCCCCN1S(C)(=O)=O", "note": "(centres unmarked) [CBK284673]", "% of control remaining": 125.997}
{"compound": "CS(=O)(=O)Nc1cc2ccccc2c(-c2cccc(C(F)(F)F)c2)n1", "note": "[CBK085754]", "% of control remaining": 110.937}
{"compound": "Clc1ccc(COc2nccnc2OC2CCN(Cc3ccc4c(c3)OCO4)CC2)cc1Cl", "note": "[CBK083109T]", "% of control remaining": 89.4821}
{"compound": "CCOC(=O)Cn1nc([N+](=O)[O-])c(Cl)c1C", "note": "[CBK269605]", "% of control remaining": 126.318}
{"compound": "CC(NC(=O)CN(c1ccc(Cl)c(Cl)c1)S(=O)(=O)c1ccccc1)c1ccccc1", "note": "(centres unmarked) [CBK263781]", "% of control remaining": 133.078}
{"compound": "COc1ccc(NC(=O)N[C@H]2C[C@@H](c3nc(-c4ccc(OC)cc4)no3)N(C)C2)cc1", "note": "[CBK288862]", "% of control remaining": 146.112}
{"compound": "N=C1NC(=O)/C(=C/c2ccc(OS(=O)(=O)c3ccc4ccccc4c3)cc2)S1", "note": "[CBK263605]", "% of control remaining": 106.101}
{"compound": "CN1C[C@]2(CC[C@@H](C(=O)N3CCCC3)CC2)Oc2ccccc2C1=O", "note": "[CBK284886]", "% of control remaining": 131.109}
{"compound": "CC(NC1CCN(Cc2ccccc2)CC1)C12CC3CC(CC(c4ccc(Cl)cc4)(C3)C1)C2", "note": "(centres unmarked) [CBK262877]", "% of control remaining": 95.9193}
{"compound": "Cc1ccnn1C(C)C(=O)NC(Cc1ccsc1)c1nccs1", "note": "(centres unmarked) [CBK285141]", "% of control remaining": 113.809}
{"compound": "O=C(O)CCc1nn2c3ccccc3n(CC(=O)c3cccs3)c2nc1=O", "note": "[CBK267518]", "% of control remaining": 134.4}
{"compound": "CC(C)(C)OC(=O)NCC(N)=S", "note": "[CBK007979]", "% of control remaining": 117.493}
{"compound": "C=Cn1cc(CN2C3CCC2CC(O)(c2ccc(C)cc2)C3)c(C)n1", "note": "(centres unmarked) [CBK283015]", "% of control remaining": 114.858}
{"compound": "O=C(O)c1cccc2c1C(=O)N(Cc1cccs1)C2", "note": "[CBK291246]", "% of control remaining": 149.406}
{"compound": "COC(=O)CN(c1ccc(Cl)cc1Cl)S(C)(=O)=O", "note": "[CBK267654]", "% of control remaining": 95.1019}
{"compound": "O=C(Nc1ccccc1C(=O)N1CCN(Cc2ccccc2)CC1)c1ccccn1", "note": "[CBK263512]", "% of control remaining": 109.308}
{"compound": "COCCN(Cc1ccncc1)C(=O)c1cnc2ccnn2c1C", "note": "[CBK306965]", "% of control remaining": 125.173}
{"compound": "O=C(Nc1ccccc1C(=O)O)c1ccccc1O", "note": "[CBK012116]", "% of control remaining": 66.262}
{"compound": "O=c1[nH]c(SCc2c(Cl)cccc2Cl)nc2ccnn12", "note": "[CBK116145]", "% of control remaining": 106.412}
{"compound": "COc1cc(C2N(Cc3ccccc3)CCCN2Cc2ccccc2)c([N+](=O)[O-])cc1OC", "note": "[CBK265224]", "% of control remaining": 119.706}
{"compound": "CCC(Cn1ccnc1)NS(=O)(=O)c1cc(-n2cccn2)ccc1OC", "note": "(centres unmarked) [CBK307483]", "% of control remaining": 126.756}
{"compound": "Cc1ccc(S(=O)(=O)Nc2c(C(=O)N3CCN(C)CC3)sc3ncccc23)cc1[N+](=O)[O-]", "note": "[CBK050025]", "% of control remaining": 132.963}
{"compound": "CC(NC(=O)Cn1c(-c2nonc2N)nc2ccccc21)c1ccccc1", "note": "(centres unmarked) [CBK266006]", "% of control remaining": 159.613}
{"compound": "Cc1ccc(Cl)cc1NC(=O)c1ccc(NCCN2C(=O)C3C4C=CC(C4)C3C2=O)c([N+](=O)[O-])c1", "note": "(centres unmarked) [CBK268357]", "% of control remaining": 154.616}
{"compound": "COc1ccccc1-c1nccnc1N(C)Cc1ccccc1", "note": "[CBK036774]", "% of control remaining": 176.376}
{"compound": "CNC(=O)C1(Cc2ccccc2-c2cccs2)CCN(C(=O)Cc2ccccc2)CC1", "note": "[CBK285746]", "% of control remaining": 130.544}
{"compound": "O=C(C1=C(O)C(=O)N(Cc2cccnc2)C1c1cccnc1)c1ccccc1", "note": "(centres unmarked) [CBK264522]", "% of control remaining": 126.176}
{"compound": "Cc1ccc(C(=O)Nc2nc3ccc(S(=O)(=O)N(C)C)cc3s2)cc1", "note": "[CBK287603]", "% of control remaining": 136.499}
{"compound": "Cc1cc(NC(=O)CCCc2ccccc2)nc2c1c(=O)oc1ccccc12", "note": "[CBK291204]", "% of control remaining": 84.3118}
{"compound": "COC(=O)c1c(NC(=S)NCc2ccc(S(N)(=O)=O)cc2)sc2c1CCC(C)C2", "note": "(centres unmarked) [CBK267039]", "% of control remaining": 148.651}
{"compound": "CC(C)(C)C(=O)Nc1ccc(-c2nc3ccc(Cc4ccc5nc(-c6ccc(NC(=O)C(C)(C)C)cc6)oc(=O)c5c4)cc3c(=O)o2)cc1", "note": "[CBK261396]", "% of control remaining": 102.061}
{"compound": "CCc1nc2c(OCc3ccccc3OC)cccn2c1N(C)C(=O)C(C)C", "note": "[CBK147763]", "% of control remaining": 93.9236}
{"compound": "CCNC(=O)O[C@@H]1CO[C@H]2[C@@H]1OC[C@@H]2NS(=O)(=O)c1ccccc1C#N", "note": "[CBK289474]", "% of control remaining": 135.181}
{"compound": "CC(=O)Cc1c(C(=O)O)c(C)nn1-c1ccccc1", "note": "[CBK286779]", "% of control remaining": 127.112}
{"compound": "COc1ccc(OC(C)C(=O)Nc2ccccc2-c2ccccc2)cc1", "note": "(centres unmarked) [CBK266661]", "% of control remaining": 93.9685}
{"compound": "N#CCCSCc1ccc(C(=O)O)o1", "note": "[CBK265858]", "% of control remaining": 101.519}
{"compound": "Cc1nc(N)sc1-c1csc(Nc2ncccn2)n1", "note": "[CBK263307B]", "% of control remaining": 89.756}
{"compound": "CC(N)C(=O)Nc1ccccc1-c1ccccc1", "note": "(centres unmarked) [CBK267700]", "% of control remaining": 131.625}
{"compound": "COC(=O)c1ccc(NC(=O)c2ccc(-n3cccn3)cc2)cc1", "note": "[CBK269486]", "% of control remaining": 127.826}
{"compound": "CC(=O)c1cc(C(=O)N2CCC(O)(c3cccc(C)c3)CC2)cs1", "note": "[CBK282531]", "% of control remaining": 114.604}
{"compound": "COc1ccc(C(NC(=O)c2cc3ccccc3[nH]2)C2CC2)cc1", "note": "(centres unmarked) [CBK297896]", "% of control remaining": 114.444}
{"compound": "O=C(CCN1CCCCC1)N1CCc2ccccc21", "note": "[CBK200413]", "% of control remaining": 117.75}
{"compound": "Cn1ccnc1C1(O)CCN(C(=O)Nc2ccc(F)cc2)CC1", "note": "[CBK282277]", "% of control remaining": 138.925}
{"compound": "NS(=O)(=O)c1ccc(NC(=O)C2Cc3ccccc3CN2S(=O)(=O)c2ccc(F)cc2)cc1", "note": "(centres unmarked) [CBK265208]", "% of control remaining": 147.207}
{"compound": "O=C(COc1ccc(S(=O)(=O)NC2CCCCC2)cc1)N1CCN(c2cccc(Cl)c2)CC1", "note": "[CBK265948]", "% of control remaining": 101.276}
{"compound": "O=C(Nc1ccsc1C(=O)O)c1ccc(Cl)cc1", "note": "[CBK076902]", "% of control remaining": 171.564}
{"compound": "CC(=O)N1CCC(n2c(C3CC3)nc3sc(C)c(C)c3c2=O)CC1", "note": "[CBK282369]", "% of control remaining": 99.1715}
{"compound": "Cc1cc(Br)ccc1C(=O)NCCc1c[nH]c2ccc(Cl)cc12", "note": "[CBK159771]", "% of control remaining": 29.2627}
{"compound": "O=C(c1c[nH]c2ccccc12)C(O)C(c1ccccc1)N1CCCCC1", "note": "(centres unmarked) [CBK267799]", "% of control remaining": 118.088}
{"compound": "Cc1noc(C)c1NC(=O)c1c(C)noc1C", "note": "[CBK200305]", "% of control remaining": 99.1354}
{"compound": "O=C(NCC1(c2ccccc2)CCCC1)c1ccc(=O)n(CC(=O)N2CCCCC2)c1", "note": "[CBK286082]", "% of control remaining": 122.645}
{"compound": "O=C1COc2ccccc2C(=O)N[C@@H]2CCOC[C@@H]2C/C=C/C[C@H]2[C@H](CCCN2CCO)N1", "note": "[CBK292149]", "% of control remaining": 100}
